These results are taken from publication PMC8245568, “Xyloglucan processing machinery in Xanthomonas pathogens and its role in the transcriptional activation of virulence factors” (Nature Communications, 2021).

This assay addresses XacGalD S106R mutant (Xanthomonas citri pv. citri 306). Kind of assay: SEC-MALS; 25 °C; Superdex 200 HR 10/300 GL; 250 μL of protein at 50 μmol L^-1 injected; 20 mmol L^-1 HEPES pH 7.5, 150 mmol L^-1 NaCl; both purified. On the technique in general: SEC sorts molecules by how far they enter the pores of the column.

No constants are given. Whether binding was seen depends on the method and setting.

Turning to “XacGalD S106R mutant (from UniProt A0AAI7ZEX2 73-585) (enzyme)”, the binding result is reported as “no binding (tested: 50 μmol L^-1)”.
